About 910 (0.23%) of roughly 390,000 compounds were called active. Inconclusive means that the source gave no clear call. Such entries were picked first, then a sample of the others. Calls come from the whole dose curve; as a rule, active = well fitted inhibition curve with a large enough effect; inconclusive = small, poorly fitted or top-dose-only effect; inactive = no such curve, though single readings can be large or run the other way. Where the call is inconclusive, the potency comes from a doubtful curve fit.
What follows are compounds tested against Ubiquitin carboxyl-terminal hydrolase 1 (Homo sapiens) (UniProt O94782) (assay: Inhibitors of USP1/UAF1: Primary Screen). Conditions: recombinant USP1/UAF1, Ub-Rhodamine cleavage fluorescence; series mostly up to 57.1 µM.
Method in brief: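 USP1/UAF1 complex at 1 nM was preincubated with compound for 15 min at room temperature, then Ub-Rho substrate (150nM final) was added. Fluorescence (480/540 nm) was read kinetically, 6 reads every 60 seconds.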
Note: nearly all actives have a fitted effect of over 60% in size.
Potency is the fitted concentration of half-maximal effect.

The chains behind the UniProt entries cited, without tags or fusion partners. Where a name states a change or a piece, a line headed by the entry shows the natural chain unless it says otherwise.
UniProt O94782: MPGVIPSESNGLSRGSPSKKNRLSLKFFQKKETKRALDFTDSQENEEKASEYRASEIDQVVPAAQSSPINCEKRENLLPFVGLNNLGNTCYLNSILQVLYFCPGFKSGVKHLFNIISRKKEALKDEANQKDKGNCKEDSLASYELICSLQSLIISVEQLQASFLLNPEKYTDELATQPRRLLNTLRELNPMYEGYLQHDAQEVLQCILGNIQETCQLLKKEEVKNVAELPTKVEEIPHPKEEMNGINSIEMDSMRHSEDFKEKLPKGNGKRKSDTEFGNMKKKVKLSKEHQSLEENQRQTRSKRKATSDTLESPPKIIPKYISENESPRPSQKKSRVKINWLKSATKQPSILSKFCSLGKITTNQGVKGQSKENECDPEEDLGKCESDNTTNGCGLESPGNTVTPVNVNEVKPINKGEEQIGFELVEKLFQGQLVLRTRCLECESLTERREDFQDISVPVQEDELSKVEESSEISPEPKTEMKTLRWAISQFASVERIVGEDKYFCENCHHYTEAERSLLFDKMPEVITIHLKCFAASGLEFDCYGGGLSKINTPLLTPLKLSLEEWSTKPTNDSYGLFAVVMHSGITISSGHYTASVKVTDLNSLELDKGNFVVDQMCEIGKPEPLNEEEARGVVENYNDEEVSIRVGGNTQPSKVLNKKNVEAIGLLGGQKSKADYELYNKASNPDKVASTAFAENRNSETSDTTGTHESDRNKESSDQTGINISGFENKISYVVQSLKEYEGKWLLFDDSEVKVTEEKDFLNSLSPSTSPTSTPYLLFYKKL

Potency, inactive:
COc1cc(NS(=O)(=O)c2ccc(NC(=O)c3ccc(Cl)cc3Cl)cc2)nc(OC)n1
O=C(NCc1ccc(F)cc1)C(=O)NCC(c1ccc2c(c1)OCO2)N1CCOCC1 (stereo not drawn)
CSc1ncc2c(n1)-c1ccccc1N(Cc1ccccc1)S2(=O)=O
c1ccc(C2=Nn3c(nnc3-c3cccs3)SC2)cc1

Potency, inconclusive:
COC(=O)c1ccc(/C=C/C(=O)c2ccc(OC)c(OC)c2)cc1 28.2 µM [inhibitor, partial curve]
CCOc1ccc(C(=O)Nc2cc3c(cc2N2CCCC2)n(C)c(=O)c(=O)n3C)cc1OCC 70.8 µM [inhibitor, partial curve, poor fit]
Cc1ccc(S(=O)(=O)Cc2nc(-c3ccc(C(=O)NCCCOC(C)C)cc3)oc2C)cc1 50.1 µM [inhibitor, partial curve, poor fit]
COc1ccc(Br)cc1CNC(=O)CN1C(=O)c2cccnc2Oc2ccc(C)cc21 6.31 µM [inhibitor, single point]
COc1ccc(-c2nc3sc(CCNS(=O)(=O)c4ccccc4)c(C)n3n2)cc1 31.6 µM [inhibitor, partial curve, poor fit]
CCOC(=O)C1CCN(C(=O)c2c(C)oc3c2C(=O)c2ccccc2C3=O)CC1 2.51 µM [inhibitor, full curve, poor fit]
O=C(NCC1CCN(Cc2ccccc2F)CC1)Nc1ccc(F)c(Cl)c1 5.01 µM [inhibitor, partial curve, poor fit]
Clc1ccc(-c2ncc3ccccn23)c(Cl)c1 2.24 µM [inhibitor, full curve]
C=CCOc1ccc(Br)cc1CNC(C)(C)C 35.5 µM [inhibitor, single point]
C[C@]12CC[C@H](O)CC1=CCC1C2CC[C@@]2(C)C1CCC21OCCO1 (stereo partly drawn) 15.8 µM [inhibitor, partial curve, poor fit]
O=C(c1ccc(F)cc1)n1nc(-c2cccnc2)nc1NCc1ccccc1 7.08 µM [inhibitor, partial curve]
CCOC(=O)c1ccccc1OC(=O)Oc1ccccc1C(=O)OCC 35.5 µM [inhibitor, single point]
CCSc1nc2ccccc2c(OCc2ccccc2Cl)c1C(=O)OC 7.94 µM [inhibitor, partial curve, poor fit]
COCCNC(=O)c1snc2ccc(Cl)cc12 15.8 µM [inhibitor, partial curve, poor fit]

For reference, 2 of the compounds above:
Potency, inconclusive:
COc1ccc(Br)cc1CNC(=O)CN1C(=O)c2cccnc2Oc2ccc(C)cc21 6.31 µM [inhibitor, single point]
COc1ccc(-c2nc3sc(CCNS(=O)(=O)c4ccccc4)c(C)n3n2)cc1 31.6 µM [inhibitor, partial curve, poor fit]

Reference: PubChem BioAssay AID743255 (National Center for Advancing Translational Sciences (NCATS), 2014)
